Results published in PMC4474691, “Leukemia-Associated Mutations in Nucleophosmin Alter Recognition by CRM1: Molecular Basis of Aberrant Transport” (PLoS ONE, 2015).
Results are given in words; binding and its absence hold for the method and conditions named. Some entries that bind do so weakly or less than the wild type.

Chains of the proteins cited; added tags and fusions are not shown.
UniProt Q6P5F9: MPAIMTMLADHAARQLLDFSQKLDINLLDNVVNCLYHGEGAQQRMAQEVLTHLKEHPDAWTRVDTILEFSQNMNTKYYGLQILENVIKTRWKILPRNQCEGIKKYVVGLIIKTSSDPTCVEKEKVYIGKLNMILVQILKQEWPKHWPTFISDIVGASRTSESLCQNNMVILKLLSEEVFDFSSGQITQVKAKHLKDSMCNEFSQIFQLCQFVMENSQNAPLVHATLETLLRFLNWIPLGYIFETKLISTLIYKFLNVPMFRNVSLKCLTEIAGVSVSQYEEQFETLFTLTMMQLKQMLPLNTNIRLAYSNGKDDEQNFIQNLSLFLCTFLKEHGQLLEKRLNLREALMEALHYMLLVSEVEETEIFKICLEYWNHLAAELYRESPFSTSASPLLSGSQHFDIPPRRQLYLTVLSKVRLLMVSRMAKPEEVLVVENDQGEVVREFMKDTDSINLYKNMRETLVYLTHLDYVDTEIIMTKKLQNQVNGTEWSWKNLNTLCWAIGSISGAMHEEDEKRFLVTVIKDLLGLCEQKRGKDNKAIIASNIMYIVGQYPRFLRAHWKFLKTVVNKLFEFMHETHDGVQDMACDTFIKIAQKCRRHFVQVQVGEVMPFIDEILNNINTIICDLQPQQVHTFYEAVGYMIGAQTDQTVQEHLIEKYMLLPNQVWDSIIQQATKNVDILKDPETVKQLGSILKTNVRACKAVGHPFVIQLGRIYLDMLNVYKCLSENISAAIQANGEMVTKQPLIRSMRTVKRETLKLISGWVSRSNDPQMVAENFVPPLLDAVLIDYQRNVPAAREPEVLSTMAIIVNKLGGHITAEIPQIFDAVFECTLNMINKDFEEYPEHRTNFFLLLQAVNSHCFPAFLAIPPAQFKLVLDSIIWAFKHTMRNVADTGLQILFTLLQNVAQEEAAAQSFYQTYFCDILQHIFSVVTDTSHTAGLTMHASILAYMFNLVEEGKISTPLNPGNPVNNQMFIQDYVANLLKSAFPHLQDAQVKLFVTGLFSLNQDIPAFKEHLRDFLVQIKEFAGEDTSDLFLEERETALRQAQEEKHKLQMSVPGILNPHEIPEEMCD

Target: T1, TFP-PKI(NES)
T1 sequence: ISGGGGLALKLAGLDI
Assay: fluorescence polarisation; fluorescence anisotropy of TFP/YFP-NES construct (50 nM) titrated with 0–60 μM CRM1; 25°C; 20 mM Tris/HCl pH 7.4, 50 mM NaCl, 5 mM DTT, 2 mM MgCl2; apparent KD (C50); both purified

binding: binds weakly
Substance: wild type CRM1 (mouse) (from UniProt Q6P5F9 1-1071) (receptor)
